The target of the assay is 4-5FNIII domain of L1 (recombinant L1 fragment) (human) (UniProt P32004). Put plainly: Western blot with recombinant L1 fragments.

Chains of the proteins cited; added tags and fusions are not shown. Residues count along the entry.
UniProt P32004, residues 920-1115: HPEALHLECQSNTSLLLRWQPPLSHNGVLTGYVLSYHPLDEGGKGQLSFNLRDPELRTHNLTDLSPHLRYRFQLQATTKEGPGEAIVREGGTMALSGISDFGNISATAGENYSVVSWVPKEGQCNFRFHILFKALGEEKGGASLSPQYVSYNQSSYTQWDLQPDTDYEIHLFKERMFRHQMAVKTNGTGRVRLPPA

Data on 1 molecule can be found in patent publication US20170306015A1 (DEUTSCHES KREBSFORSCHUNGSZENTRUM STIFTUNG DES FFENTLICHEN …, published 2017).

No constants are given. Whether binding was seen depends on the method and setting. Some entries that bind do so weakly or less than the wild type.

B1: monoclonal antibody L1-OV52.24 (antibody, IgG1, V domains shown)
VH: EVQLQQSGAELVRPGALVKLSCKASGFNIKDYYMQWVKQRPEQGLEWIGWIDPENGKTVFDPKFRGKASISADTSSNTAYLQLSSLTSEDTAVYYCARWNPLAFWGQGTLVTVSS
VL: DIVMTQSQKFMSTSVGDRVSVTCKASQNVGTNVAWYQQKPGHSPKALIYSTSYRYSGVPDRFTGSGSGTDFTLTIRNVQSEDLAEYFCQQYNTYPYTFGGGTKLEIK
notes: also called mAb L1-OV52.24; L1CAM mAb OV52.24
Take B1: the binding entry is “binds”.
